Test results from publication PMC8894474.
These are yes or no findings as the source states them, for the method shown. Binding seen in cells or lysates may run through a third protein. Some results given as binding are weak or reduced against the parent protein; the word gives no strength. Tags and fused reporters may be left off the sequences shown.

Target: T1, GFP-epitope tagged BIN1V1 (neuronal isoform of Bridging integrator 1) (UniProt O00499)
T1 sequence: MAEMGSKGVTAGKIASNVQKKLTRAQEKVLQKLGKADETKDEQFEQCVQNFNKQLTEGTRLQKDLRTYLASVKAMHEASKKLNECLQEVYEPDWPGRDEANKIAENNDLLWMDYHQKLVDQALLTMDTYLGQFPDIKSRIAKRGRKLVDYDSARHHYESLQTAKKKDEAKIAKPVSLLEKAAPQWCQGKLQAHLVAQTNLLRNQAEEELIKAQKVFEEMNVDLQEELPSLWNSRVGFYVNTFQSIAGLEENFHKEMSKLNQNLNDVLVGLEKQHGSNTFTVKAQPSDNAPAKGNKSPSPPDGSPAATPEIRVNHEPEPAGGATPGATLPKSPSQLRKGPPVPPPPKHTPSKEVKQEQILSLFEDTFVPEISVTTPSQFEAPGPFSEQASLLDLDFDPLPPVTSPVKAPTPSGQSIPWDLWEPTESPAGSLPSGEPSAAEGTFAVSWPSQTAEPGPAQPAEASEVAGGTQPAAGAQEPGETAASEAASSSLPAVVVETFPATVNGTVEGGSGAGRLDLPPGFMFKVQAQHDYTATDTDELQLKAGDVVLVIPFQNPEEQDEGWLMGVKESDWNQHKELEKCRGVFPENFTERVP
Assay: co-IP; cells expressing BIN1V1GFP or BIN1V9GFP without or with RIN3flag; immunoprecipitation with anti-GFP antibody, immunoblot with anti-BIN1 and anti-RIN3

B1: flag-epitope tagged RIN3 (Ras and Rab interactor 3) (protein, UniProt Q8TB24 1-985)
chain: MIRHAGAPARGDPTGPVPVVGKGEEEEEEDGMRLCLPANPKNCLPHRRGISILEKLIKTCPVWLQLSLGQAEVARILHRVVAGMFLVRRDSSSKQLVLCVHFPSLNESSAEVLEYTIKEEKSILYLEGSALVFEDIFRLIAFYCVSRDLLPFTLRLPQAILEASSFTDLETIANLGLGFWDSSLNPPQERGKPAEPPRDRAPGFPLVSSLRPTAHDANCACEIELSVGNDRLWFVNPIFIEDCSSALPTDQPPLGNCPARPLPPTSDATSPTSRWAPRRPPPPPPVLPLQPCSPAQPPVLPALAPAPACPLPTSPPVPAPHVTPHAPGPPDHPNQPPMMTCERLPCPTAGLGPLREEAMKPGAASSPLQQVPAPPLPAKKNLPTAPPRRRVSERVSLEDQSPGMAAEGDQLSLPPQGTSDGPEDTPRESTEQGQDTEVKASDPHSMPELPRTAKQPPVPPPRKKRISRQLASTLPAPLENAELCTQAMALETPTPGPPREGQSPASQAGTQHPPAQATAHSQSSPEFKGSLASLSDSLGVSVMATDQDSYSTSSTEEELEQFSSPSVKKKPSMILGKARHRLSFASFSSMFHAFLSNNRKLYKKVVELAQDKGSYFGSLVQDYKVYSLEMMARQTSSTEMLQEIRTMMTQLKSYLLQSTELKALVDPALHSEEELEAIVESALYKCVLKPLKEAINSCLHQIHSKDGSLQQLKENQLVILATTTTDLGVTTSVPEVPMMEKILQKFTSMHKAYSPEKKISILLKTCKLIYDSMALGNPGKPYGADDFLPVLMYVLARSNLTEMLLNVEYMMELMDPALQLGEGSYYLTTTYGALEHIKSYDKITVTRQLSVEVQDSIHRWERRRTLNKARASRSSVQDFICVSYLEPEQQARTLASRADTQAQALCAQCAEKFAVERPQAHRLFVLVDGRCFQLADDALPHCIKGYLLRSEPKRDFHFVYRPLDGGGGGGGGSPPCLVVREPNFL
With B1 the binding was “binds”.
